Several values for one entry are separate records, joined by “and”; a condition that tells them apart may be missing. Equal values may be shown once. At least one read-out could not be matched to a standard name with certainty.
Test system: bed bugs, Cimex lectularius
Assay: Bed bug repellency bioassay, glass tube olfactometer arena
Assay type: in vivo
Protocol: Per individual bioassay, 10 adult or late instar nymph bed bugs, Cimex lectularius, of mixed sex. Bed bugs sourced from wild, field populations and tested within 2 weeks of capture. Subjects were tested one time, only.
(ii) Olfactometer consisting of a glass tube. Tube ends were plugged to prevent egress of test subjects. Test substrates were placed at opposite ends of the tube. Tube Olfactometer includes a port in the centre for introduction of test subjects. Dimensions of the tube were 15.2 mm in diameter by 304.8 mm long.
Compounds were either purchased from commercial sources or synthesized using conventional synthetic organic chemistry techniques (see, for example, Examples 5 to 7). Some compounds (014, 058 and 080) were tested in duplicate (one version from commercial sources and one synthesized) and the best performance is reported in the Tables below. Of the tested compounds reported in the Tables below, the following compounds were synthesized: 006, 010, 017, 018, 040, 041 to 043, 045, 046, 048, 049, 058, 067 to 075, 079, 080 to 082, 089 and 090.
Test compounds consisted of a control and treatment. The treatment consisted of a test compound mixed as a percentage w/w in a suitable solvent. The test compound solvent itself was used as a control. Solvents used were hexane, hexane:methanol, or dichloromethane:methanol.
(i) Gauze cut to a standard size and folded upon itself to provide harbourage for test subjects.
(iii) Absorbent polymer “aroma” beads that were given sufficient time to fully absorb test compounds and control solvents.
In the case of gauze and filter paper substrates, control solvents and test mixtures of known concentrations and volumes were dispensed directly onto substrates using a pipette. For polymer beads, beads were mixed w/w with solvent or test compound in a small glass jar. The jars were occasionally agitated to facilitate soaking of the beads.
Immediately after the substrates were infused with test compounds and control solvents, test subjects were introduced to the centre of the selected observation arena. […] Only subjects that were in close contact with the treatment or control substrates were recorded. Subjects elsewhere in the arena were not included in repellency calculations. Percentage repellency was calculated based on a modification of Abbott's formula to account for negative repellency (attraction). Specifically: IF(C>=T,(C−T)/C*100,(T−C)/T*−100)
where C is number of test subjects in contact with control substrate and T is number of test subjects in contact with treatment substrate.
All average repellency results reported in the table are based on 3 replicates for each reported trial, with each trial involving at least 3 observation periods. […]

Compound	% Repellency (% R), Overall Average (gauze, 50 uL, 5% w/v in hexane, average of 3 replicates x 3 observation periods)	% Repellency T1 (single repetition) (observation period T1, individual repetitions 1-3, beads, 20 uL, 25% w/w in hexane)	% Repellency T2 (single repetition) (observation period T2, individual repetitions 1-3, beads, 20 uL, 25% w/w in hexane)	% Repellency T3 (single repetition) (observation period T3, individual repetitions 1-3, beads, 20 uL, 25% w/w in hexane)
CCC(=O)C(=O)CC [Compound 027, 3,4-Hexanedione]	75%	–	–	–
CCC(=O)NC [Compound 032, N-Methylpropionamide]	–	75% (2×) and −33%	80% and −100% (2×)	100% and −100% and −75%

Source: patent publication US11116212B2, “Carbonyl containing compounds for controlling and repelling Cimicidae populations” (SemiosBio Technologies Inc., priority 2011, dated 2021)
